In patent publication US7897846B2, “Maize event DP-098140-6 and compositions and methods for the identification and/or detection thereof” (Pioneer Hi-Bred Int'l, Inc., priority 2006, dated 2011):

Test: Quantitative GLYAT4621 ELISA of leaf and seed, two generations (ng/mg dry weight)
Design: species or system Zea mays

B1: GLYAT4621: glyphosate acetyltransferase protein encoded by the glyat4621 gene, expressed in DP-098140-6 maize (protein)
chain: MAIEVKPINAEDTYDLRHRVLRPNQPIEACMFESDLTRSAFHLGGFYGGKLISVASFHQAEHSELQGKKQYQLRGVATLEGYREQKAGSSLVKHAEEILRKRGADMIWCNARTSASGYYRKLGFSEQGEVFDTPPVGPHILMYKR
modifications: GAT4621 probe
notes: glyphosate acetyltransferase protein encoded by the glyat4621 gene, expressed in DP-098140-6 maize
GLYAT4621 protein concentration, Mean (98140 Generation 1, leaf): 34 ng/mg Tissue Dry Weight
GLYAT4621 protein concentration, Mean (98140 Generation 1, seed (only non-segregating seed samples)): 9.6 ng/mg Tissue Dry Weight
GLYAT4621 protein concentration, Mean (98140 Generation 2, leaf): 34 ng/mg Tissue Dry Weight
GLYAT4621 protein concentration, Mean (98140 Generation 2, seed): 10 ng/mg Tissue Dry Weight
GLYAT4621 protein concentration, Mean (Control Generation 1, leaf, zero assigned to results below sample LLOQ): 0 ng/mg Tissue Dry Weight
GLYAT4621 protein concentration, Mean (Control Generation 1, seed, zero assigned to results below sample LLOQ): 0 ng/mg Tissue Dry Weight
GLYAT4621 protein concentration, Mean (Control Generation 2, leaf, zero assigned to results below sample LLOQ): 0 ng/mg Tissue Dry Weight
GLYAT4621 protein concentration, Mean (Control Generation 2, seed, zero assigned to results below sample LLOQ): 0 ng/mg Tissue Dry Weight
